Some results were stated once for a whole list of compounds, not compound by compound. For at least one compound, name, drawing or mass did not settle the structure.
Assays:
Type in all cases: cell-based
[1] = test system: SERPINB5; experiment: SERPINB5 induction (western blot) in Panc1 cells
[2] = test system: IL-24, GDA, and DCDC2; experiment: Induction of NR4A1-responsive mRNAs in Rh30 cells; conditions: up to, compound and gene-dependent
[3] = test system: GAL4-NR4A2; experiment: GAL4-NR4A2/UAS-Luc transactivation (luciferase) in Panc1 cells; conditions: substituted 2-hydroxy analogs, FIG. 15
Text: FIG. 2 graphically illustrates luciferase activity in Panc1 cells transfected with GAL4-NR4A1 and GAL4-NR4A2 and UAS-Luc (GAL4-binding luciferase construct) treated with 4-, 3- and 2-hydroxy C-DIM analogs according to embodiments of the present disclosure;
FIG. 13 graphically illustrates luciferase activity in Panc1 cells transfected with GAL4-NR4A2 and UAS-Luc treated with 3-hydroxy C-DIM analogs, according to embodiments of the present disclosure;
FIG. 15 graphically illustrates luciferase activity in Panc1 cells transfected with GAL4-NR4A2 and UAS-Luc treated with 2-hydroxy C-DIM analogs, according to embodiments of the present disclosure;

| SMILES | fold more potent than the 4-hydroxy C-DIM positive control (SERPINB5 induction) [1] [fold] | times more potent than DIM-C-pPhOH based on EC50 values for mRNA induction [2] [times] | maximal NR4A2 induction response relative to the 4-bromo DIM reference standard [3] [%] |
| --- | --- | --- | --- |
| Oc1ccc(C(c2c[nH]c3ccccc23)c2c[nH]c3ccccc23)cc1Cl [C-DIM8-3-Cl] | > 4 | > 10 |  |
| Oc1c(Br)cc(Br)cc1C(c1c[nH]c2ccccc12)c1c[nH]c2ccccc12 [3,5-dibromo (2-hydroxy analog)] |  |  | > 33 |
